Patent EP0359745B1, “GROWTH FACTOR RECEPTOR” (IMPERIAL CANCER RESEARCH TECHNOLOGY LIMITED, priority 1987, dated 1988)
At least one peptide structure holds a part that was inferred or is arguable (an end, a ring closure or a residue).

Protein sequences, listed by entry. Tags and fused reporters are not part of them. Lines headed by an entry give the natural chain unless they say otherwise; changes in a name come on top.
UniProt P21729: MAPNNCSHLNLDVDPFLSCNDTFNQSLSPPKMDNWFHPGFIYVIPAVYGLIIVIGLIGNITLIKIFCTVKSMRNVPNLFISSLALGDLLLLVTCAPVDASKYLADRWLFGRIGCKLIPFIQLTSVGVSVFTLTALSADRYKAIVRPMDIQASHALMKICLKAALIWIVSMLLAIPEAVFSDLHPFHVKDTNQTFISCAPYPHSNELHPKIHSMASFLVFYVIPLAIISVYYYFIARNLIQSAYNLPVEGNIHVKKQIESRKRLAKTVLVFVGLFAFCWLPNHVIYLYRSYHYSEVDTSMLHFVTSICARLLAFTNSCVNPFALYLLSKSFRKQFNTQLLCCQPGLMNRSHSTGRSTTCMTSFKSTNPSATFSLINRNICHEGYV

Molecular target: Mr 75000-85000 protein (Mus musculus, UniProt P21729)
Experiment: ¹²⁵I-GRP affinity labelling (EGS cross-linking) of the Mr 75000-85000 protein in Swiss 3T3 cells, SDS-PAGE and scanning densitometry
Format: binding
Design: endogenous in cells; host or cells: Swiss 3T3 cells (mouse fibroblasts)
Conditions: summary of Table 1; saturating concentrations of the other mitogens
Procedure: After 2.5 h the cells were washed three times at 15°C with phosphate buffered saline (PBS) ad then incubated for 15 min at 15°C In 1 ml of binding medium, pH 7.4 In the presence of the appropriate cross-linking agent at the concentration indicated. The cross-linking agents (EGS, DSS, DSP and BSCOES) were dissolved in dimethyl sulphoxide immediately prior to use and were added to medium to give a final concentration of dimethylsulphoxide of 1-2%. The cultures were rapidly rinsed twice with PBS at 4°C and solubilized in 0.1ml of 2 x sample buffer 0.2 M Tris-HCl, pH 6.8, 10% (w/v) glycerol, 6% sodium dodecyl sulphate (SDS) (w/v) 4% β-mercaptoethanol (v/v) and 2 mM ethylenediaminetetraacetic acid. Samples were immediately heated at 100°C for 3-5 min and analysed by either one or two-dimensional gel electrophoresis.
Slab gel electrophoresis was performed using 7.5% acrylamide in the separating gel ad 5% in the stacking gel, ad 0.1% SDS (31). […] The Mr 75000-85000 band from autoradiograms was scanned using a Joyce-Loebl double beam densitometer and the areas under specific peaks were measured with a Hewlett-Packard digitizer.
After this time some cells were washed four times with cold (4°C) PBS supplemented with 1 mg/ml BSA, solubilized and total cell associated radioactivity was then determined in a gamma counter. […] The cells were then solubilized and samples were analyzed by SDS-PAGE. […]

Compound: CSCC[C@H](NC(=O)[C@H](CC(C)C)NC(=O)CNC(=O)[C@@H](NC(=O)[C@H](Cc1ccccc1)NC(=O)[C@H](CO)NC(=O)[C@H](CC(=O)O)NC(=O)[C@@H](NC(=O)[C@H](CCCCN)NC(=O)[C@@H](N)Cc1c[nH]cn1)[C@@H](C)O)C(C)C)C(N)=O [Substance K]
- cross-linking of ¹²⁵I-GRP / level of the Mr 75000-85000 protein (in words): no effect
